Data as given in PubChem BioAssay AID1259405 (NCATS, 2018).

- Test: 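Silenced genes that increase secreted GFP made by CHO cells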 (primary screen)
- System: Chinese hamster CHO-K1 ovary cells with stable secreted eGFP expression
- Knock-down reagent: single siRNA against mouse genes, 0.8 pmol siRNA per well (2 µl of 400 nM stock)
- Duration: 3 days
- Measurement: 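Percent of the per-plate non-targeting control median for intracellular GFP per well by laser scanning cytometry and for cell viability by ATP luminescence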
- Scale: GFP, % of control: higher = more GFP per well, higher productivity; viability (ATP), % of control: higher = more viable cells (more ATP)
- Rule for the call: 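a knock-down is called active if GFP reaches 120% or more of non-targeting control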
Here is a random part of about 50,000 reagents tested. In the full data, about 4,000 (8%) were called active. 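Mouse siRNA library applied to hamster cells; one well for each siRNA.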 A number with no mark means an inactive call. Reagents against one gene are numbered here.

| target | reagent | GFP, % of control | viability (ATP), % of control |
| --- | --- | --- | --- |
| Syt15 | 1 | 85.4 | 94.4 |
| Syt15 | 2 | 100 | 90.2 |
| Snx20 | 1 | 55.2 | 59.8 |
| Snx20 | 2 | 103 | 93.7 |
| Snx20 | 3 | 98.8 | 132 |
| Nrg3 | 1 | 79.6 | 57.2 |
| Nrg3 | 2 | 74.6 | 49.3 |
| Nrg3 | 3 | 67.7 | 36.5 |
| Epor | 1 | 67.4 | 85.2 |
| Epor | 2 | 49.5 | 42.8 |
| Epor | 3 | 52.9 | 41.8 |
| Slc6a8 | 1 | 94 | 57.1 |
| Slc6a8 | 2 | 36.3 | 28.7 |
| Slc6a8 | 3 | 87.8 | 74.2 |
| Klra21 | 1 | 98.2 | 95.5 |
| Klra21 | 2 | 179 (active) | 107 |
| Klra21 | 3 | 108 | 76.3 |

5 successive entries from above, for reference:
| target | reagent | GFP, % of control | viability (ATP), % of control |
| --- | --- | --- | --- |
| Nrg3 | 1 | 79.6 | 57.2 |
| Nrg3 | 2 | 74.6 | 49.3 |
| Nrg3 | 3 | 67.7 | 36.5 |
| Epor | 1 | 67.4 | 85.2 |
| Epor | 2 | 49.5 | 42.8 |

Next records follow.
| target | reagent | GFP, % of control | viability (ATP), % of control |
| --- | --- | --- | --- |
| Or1aa2 | 1 | 53.7 | 60.8 |
| Or1aa2 | 2 | 51.2 | 44.1 |
| Or1aa2 | 3 | 61.1 | 77 |
| 1700020L24Rik | 1 | 79.2 | 72.7 |
| 1700020L24Rik | 2 | 80.3 | 88.2 |
| 1700020L24Rik | 3 | 86.4 | 67.7 |
| Idh2 | 1 | 57.7 | 49.1 |
| Idh2 | 2 | 70.9 | 95 |
| Idh2 | 3 | 93.7 | 99.3 |
| Bod1 | 1 | 101 | 101 |
| Bod1 | 2 | 85.1 | 68.1 |
| Bod1 | 3 | 106 | 111 |
| Cartpt | 1 | 80.6 | 81.6 |
| Cartpt | 2 | 72.1 | 54.3 |
| Cartpt | 3 | 90.2 | 113 |
| Or5o1 | 1 | 85 | 76.6 |
| Or5o1 | 2 | 94.5 | 75 |
| Or5o1 | 3 | 107 | 107 |
